Reference: PubChem BioAssay AID1224826 (NIAID, 2016)
Here is an unselected part of about 17,000 reagents. About 1,110 of all reagents (6.6%) were called active. 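Active means lowered or raised reporter signal; replicate intensities are raw and not normalised per plate.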 A number with no mark means an inactive call. Further read-outs or replicates are left out here.

Screen: 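Regulators of Tlr4 signalling leading to Tnf-alpha expression in macrophages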 (primary screen)
Cells: RAW264.7 G9 macrophages from mouse bearing reporters for p65 (GFP) and the Tnf promoter (mCherry)
Reagent: siRNA pool against mouse genes, 100 nM
Time to read-out: 16 h of LPS stimulation, after 2 days of siRNA transfection
Challenge: bacterial lipopolysaccharide (Salmonella minnesota R595), 10 ng/ml
Detection: 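Nuclear mCherry signal of the Tnf promoter reporter measured by imaging after background removal, scaled to each plate median and turned into robust z-scores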
Reading the numbers: Tnf reporter robust z-score: higher = stronger Tnf promoter reporter signal after LPS
Hit rule: 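Called active when robust z-score is at most -1.3, matching the median of the Tlr4 knock-down control, or over 3; control wells and wells with under 50 cells never active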
Calls: active = Tnf reporter clearly lowered or raised; inactive = no clear change in Tnf reporter

Target gene	Tnf reporter robust z-score	fewer than 50 cells in well
Asf1b (anti-silencing function 1B histone chaperone)	0.13	enough cells in well
Krt4 (keratin 4)	-1.07	enough cells in well
Cox5b (cytochrome c oxidase subunit 5B)	0.46	enough cells in well
Mbl1 (mannose-binding lectin (protein A) 1)	3.26 (active)	enough cells in well
Habp2 (hyaluronic acid binding protein 2)	-0.94	enough cells in well
Mapt (microtubule-associated protein tau)	-0.04	enough cells in well
Cd200r2 (Cd200 receptor 2)	-0.07	enough cells in well
Map3k7 (mitogen-activated protein kinase kinase kinase 7)		fewer than 50 cells per well; well left out of calls
Prrt1 (proline-rich transmembrane protein 1)		fewer than 50 cells per well; well left out of calls
Tnfaip8l2 (tumor necrosis factor, alpha-induced protein 8-like 2)		fewer than 50 cells per well; well left out of calls
Wscd2 (WSC domain containing 2)	-1.08	enough cells in well
Tmem254 (transmembrane protein 254)	-0.33	enough cells in well
Wnt5a (WNT family member 5A)	-0.69	enough cells in well
Slc37a2	-0.9	enough cells in well
H2ax (H2A.X variant histone)	0.79	enough cells in well
Hapln3 (hyaluronan and proteoglycan link protein 3)	1.87	enough cells in well
Cntn4 (contactin 4)	-0.4	enough cells in well
Tbx15 (T-box 15)	1.24	enough cells in well
Cdkn1c (cyclin dependent kinase inhibitor 1C)	0.29	enough cells in well
Sema3f	0.44	enough cells in well
Oas1c (2'-5' oligoadenylate synthetase 1C)	-0.67	enough cells in well
Klk1b9 (kallikrein 1-related peptidase b9)		fewer than 50 cells per well; well left out of calls
Chka (choline kinase alpha)		fewer than 50 cells per well; well left out of calls
Fastkd2 (FAST kinase domains 2)	-0.43	enough cells in well
Gpr75 (G protein-coupled receptor 75)	-0.37	enough cells in well

Entries listed so far whose target name starts with K or k (2):
Target gene	Tnf reporter robust z-score	fewer than 50 cells in well
Krt4 (keratin 4)	-1.07	enough cells in well
Klk1b9 (kallikrein 1-related peptidase b9)		fewer than 50 cells per well; well left out of calls

Continued:
Target gene	Tnf reporter robust z-score	fewer than 50 cells in well
Wnt10b (WNT family member 10B)	0.19	enough cells in well
Stat6 (signal transducer and activator of transcription 6)	0.5	enough cells in well
Hs3st3a1 (heparan sulfate (glucosamine) 3-O-sulfotransferase 3A1)	-1.33 (active)	enough cells in well
Lax1 (lymphocyte transmembrane adaptor 1)	0.3	enough cells in well
Lmf1 (lipase maturation factor 1)		fewer than 50 cells per well; well left out of calls
Nin (ninein)	0.6	enough cells in well
Hdgf (heparin binding growth factor)	-0.26	enough cells in well
Ube2k (ubiquitin-conjugating enzyme E2K)	-0.27	enough cells in well
Hadha	0.64	enough cells in well
Or56a3b (olfactory receptor family 56 subfamily A member 3B)	-0.55	enough cells in well
Arpc5 (actin related protein 2/3 complex, subunit 5)	0.77	enough cells in well
Cfi (complement component factor i)	1.16	enough cells in well
Aspscr1 (ASPSCR1 tether for SLC2A4, UBX domain containing)	0.79	enough cells in well
Orai1 (ORAI calcium release-activated calcium modulator 1)	-0.93	enough cells in well
Stx2 (syntaxin 2)	-0.39	enough cells in well
Ssxb1 (SSX member B1)		fewer than 50 cells per well; well left out of calls
Fsd2 (fibronectin type III and SPRY domain containing 2)	-0.08	enough cells in well
Or5d38 (olfactory receptor family 5 subfamily D member 38)	1.83	enough cells in well
Ca6 (carbonic anhydrase 6)	-0.73	enough cells in well
Ntrk3 (neurotrophic tyrosine kinase, receptor, type 3)	0.33	enough cells in well
Sec11a (SEC11 homolog A, signal peptidase complex subunit)	0.35	enough cells in well
Lhfpl4 (lipoma HMGIC fusion partner-like protein 4)	-1.55 (active)	enough cells in well
Brms1 (breast cancer metastasis-suppressor 1)	2.46	enough cells in well
Cdh2 (cadherin 2)	-0.6	enough cells in well
Rhox4e (reproductive homeobox 4E)	2.33	enough cells in well
Cers6 (ceramide synthase 6)	-0.01	enough cells in well
Fzd5 (frizzled class receptor 5)	-0.4	enough cells in well
Fut7 (fucosyltransferase 7)	0.75	enough cells in well
Fam25a (family with sequence similarity 25, member A)		fewer than 50 cells per well; well left out of calls
Zfp516 (zinc finger protein 516)	2.91	enough cells in well
Syn2 (synapsin II)	6.74 (active)	enough cells in well
Dqx1 (DEAQ RNA-dependent ATPase)	-0.18	enough cells in well
Fbxw17 (F-box and WD-40 domain protein 17)		fewer than 50 cells per well; well left out of calls
